From publication PMC5779224
These are yes or no findings as the source states them, for the method shown.

Columns and labels:
[1] = target: AnkG 38–855 (AnkG MBD-AI-c protein; MBD + partial AI-c) (rat) (UniProt O70511); assay: ITC; VP-ITC MicroCal, 25 °C; proteins in 50 mM Tris-HCl pH 7.8, 1 mM DTT, 1 mM EDTA with 100 mM or 500 mM NaCl as required; who was titrated is not told; both purified
[2] = target: AnkB 28–847 (MBD + partial AI-c) (human) (UniProt Q01484); assay: as above

binding [1] | binding [2] | Binder
no binding | – | AnkG linker (861-920) Asp887Ala, Asp889Ala, Lys890Glu (domain or fragment, UniProt O70511-1 861-920) KASAPEKLSDGEYISDGEEGEDAITGATAEYLGPQDLKELGDDSLPAEGYVGFSLGARSA
– | no binding | EDLKELGDDSLPSSQFLDGANALRYSLEGGRS (domain or fragment, UniProt Q01484-2 865-896) [AnkB_AI-b Met884Ala, Tyr886Ala]
